# From publication PMC12040169 (PLOS Biology, 2025)
# Some of the results follow.
# Test system: T1, CTL2-GFP (C. trachomatis L2/434/Bu, GFP-expressing)
# T1 construct: L2/434/Bu, GFP-expressing
# Design: species or system HeLa; Intracellular C. trachomatis growth in HeLa cells, bulk GFP fluorescence relative to DMSO
# Details: bulk GFP, single well; 28.5 h, 10 µM; inhibitor
row,Compound,% of control remaining
1,COc1cccc(-c2cccc(NS(=O)(=O)c3ccc4c(c3)CCC(=O)N4)c2)c1 [CBK286372],76.3572%
2,CC1(C)Cc2ccccc2C(NCC(=O)O)=N1 [CBK262562],100%
3,O=C(c1cc(C2CC2)on1)N1CCn2cc(C(F)(F)F)nc2C1 [CBK282425],117.493%
4,COc1ccc(-c2nc(NC(=O)c3cnccn3)cnc2-c2ccc(F)cc2)cc1 [CBK037150],145.789%
5,CCN1CC(C(=O)NCc2ccc(CN3CCCCC3)cc2)CC1=O (stereo not drawn) [CBK281400],119.069%
6,O=C(CN1C(=O)N2CCN=C2c2ccccc21)N1CCCCC1 [CBK283865],99.1103%
7,Cc1cc(N2CCOCC2)nc2ccc(NC(=O)c3ccncc3)cc12 [CBK288587],104.929%
8,Cc1ccc(/C=N/NC(=O)CN(c2ccccc2)S(=O)(=O)c2ccccc2)c(C)c1C [CBK262098],120.359%
9,O=C(Nc1ccc2c(c1)nc1n2CCOC1)C1CCCCC1 [CBK307570],95.5855%
10,COCCC(=O)N1CCC(F)CC1 [CBK200399],71.4002%
11,CN(C)c1ccc(CCNC(=O)c2c3c(nn2C)CCCC3)cc1 [CBK281824],118.711%
12,CNC(=O)C1(Cc2ccc(-c3cccs3)cc2)CCN(C(=O)C2CCCCC2)CC1 [CBK285793],140.125%
13,CCNC(=O)Nc1ncc(-c2ccc(C(C)(C)C)cc2)c2cccnc12 [CBK070632],111.751%
14,O=C(NCCC1=CCCCC1)c1cnc2n(c1=O)CCS2 [CBK287373],118.389%
15,COc1cncc(-c2ccc(N3CCN(CCN(C)C)CC3)nc2)c1 [CBK037720],202.237%
16,COc1ccccc1OCC(=O)N1CCC2(CCNC2)C1 (stereo not drawn) [CBK156703C],122.575%
17,Cc1c(C(=O)C2=C(O)C(=O)N(Cc3cccnc3)C2c2ccc(F)cc2)cnn1-c1ccccc1 (stereo not drawn) [CBK266541],136.021%
18,Nn1c(CSc2ccccn2)nnc1CSc1ccccn1 [CBK266987],132.049%
19,Cc1cccc2c(C(=O)NCc3ccc(S(N)(=O)=O)cc3)cc(-c3ccccc3Cl)nc12 [CBK267743],98.9659%
20,O=C(O)c1ccc(S(=O)(=O)c2ccc(Oc3ccc4c(c3)C(=O)N(c3cccc(C(=O)O)c3)C4=O)cc2)cc1 [CBK263608],100%

row,Compound,% of control remaining
1,Cc1ccc(-c2ccc(CCC(=O)O)n2CC2CCCO2)cc1 (stereo not drawn) [CBK268636],135.968%
2,CN(C(=O)C1(C)CCOCC1)c1nc2c(s1)CC(c1ccccc1)CC2 (stereo not drawn) [CBK305531],131.494%
3,COCCNC(=O)N1CCCC(CO)C1 (stereo not drawn) [CBK156040],125.537%
4,CC(=O)Nc1ccc(-c2ccc(C(=O)NCc3ccc(C(C)C)cc3)cn2)cc1 [CBK158857],80.1668%
5,Cc1ccnc2nc(C(=O)OCC(=O)Nc3cccc(C#N)c3)nn12 [CBK305068],142.38%
6,COc1cc(-c2nccnc2NCC2CCCCC2)cc(OC)c1OC [CBK037647],100.21%
7,CNC(=O)c1cnc(SC)nc1NCCc1c[nH]c2ccccc12 [CBK093597],60.6313%
8,CS(=O)(=O)CCS(=O)(=O)N1CCOCC1c1cccc(F)c1 (stereo not drawn) [CBK304111],149.792%
9,CCc1nc2ccc(C(=O)N(C)CCN(C)C)cn2c1N(C)Cc1cc2ccccc2s1 [CBK146551],111.495%
10,O=C(O)C(c1c[nH]c2cc(CO)ccc12)N1CCCN(c2ccc(C(F)(F)F)cn2)CC1 (stereo not drawn) [CBK286845],143.203%
11,COCc1cccc(-c2nccnc2OC2CCCCC2)c1 [CBK106959],127.703%
12,Cc1ccc(-c2nsc(SCC(=O)c3ccc(Cl)cc3)n2)cc1 [CBK113177],122.595%
13,Cc1ccc(SCCNC(=O)C(C)Sc2ccc(Cl)cc2)cc1 (stereo not drawn) [CBK264104],100%
14,CN(C)[C@H]1CCN(C(=O)c2ccc(Nc3cncc(Cl)n3)cn2)C1 [CBK172073],131.934%
15,Cc1cc(CN(C)Cc2cnn(-c3ccc(F)cc3)c2)n[nH]1 [CBK281706],104.639%
16,COc1ccc2c(c1)C1(CC(=O)N(Cc3cccnc3)C1=O)C(=O)N2C (stereo not drawn) [CBK075236],100%
17,CC(C)c1nccc(CN2CCC(CCN3CCCC3=O)CC2)n1 [CBK306887],97.469%
18,Nc1cc(-c2cccs2)nn(Cc2ccccc2Cl)c1=O [CBK282884],120.314%
19,CC(C)C(=O)N1C[C@H]2N(C)C(=O)c3ccccc3C(=O)[C@@]2(C)C1 [CBK284568],159.167%

# Quoted from the entries so far, 2 compounds:
row,Compound,% of control remaining
4,COc1ccc(-c2nc(NC(=O)c3cnccn3)cnc2-c2ccc(F)cc2)cc1 [CBK037150],145.789%
5,CCN1CC(C(=O)NCc2ccc(CN3CCCCC3)cc2)CC1=O (stereo not drawn) [CBK281400],119.069%
